Results taken from paper doi:10.1101/723213.
Positions count from the first letter of the chain named. No constants are given. Whether binding was seen depends on the method and setting. Some entries that bind do so weakly or less than the wild type. For some of these results: Sequences can lack the tags named with a protein. Each block holds one substance with its values, some of them ahead of it.

Amino acid sequences for entries named in this document (tags omitted). A change or cut given only in a name is not applied to a line headed by its entry.
UniProt Q9V6Q2, whole entry: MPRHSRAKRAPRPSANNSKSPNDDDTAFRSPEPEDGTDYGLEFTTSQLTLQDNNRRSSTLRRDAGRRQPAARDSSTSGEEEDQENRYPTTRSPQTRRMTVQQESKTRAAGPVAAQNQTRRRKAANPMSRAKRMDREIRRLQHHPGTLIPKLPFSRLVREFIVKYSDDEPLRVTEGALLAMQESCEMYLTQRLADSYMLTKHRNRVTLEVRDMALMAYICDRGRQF

Columns and labels:
[1] = biological target: CENP-A-GFP-LacI (Drosophila melanogaster) (UniProt Q9V6Q2); assay: LacO/LacI tethering assay in cells
[2] = biological target: T1, His-CENP-C_(1264-1411) (Drosophila melanogaster) (UniProt Q9VHP9); assay: SEC
T1 sequence: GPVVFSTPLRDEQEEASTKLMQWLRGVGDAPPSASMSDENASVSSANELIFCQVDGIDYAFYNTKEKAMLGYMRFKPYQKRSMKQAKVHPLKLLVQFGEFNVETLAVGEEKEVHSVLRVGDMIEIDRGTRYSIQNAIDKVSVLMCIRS

[3] = biological target: T2, GFP-LacI-CENP-C F1324R (Drosophila melanogaster) (UniProt Q9VHP9); assay: LacO/LacI tethering assay in cells
T2 sequence: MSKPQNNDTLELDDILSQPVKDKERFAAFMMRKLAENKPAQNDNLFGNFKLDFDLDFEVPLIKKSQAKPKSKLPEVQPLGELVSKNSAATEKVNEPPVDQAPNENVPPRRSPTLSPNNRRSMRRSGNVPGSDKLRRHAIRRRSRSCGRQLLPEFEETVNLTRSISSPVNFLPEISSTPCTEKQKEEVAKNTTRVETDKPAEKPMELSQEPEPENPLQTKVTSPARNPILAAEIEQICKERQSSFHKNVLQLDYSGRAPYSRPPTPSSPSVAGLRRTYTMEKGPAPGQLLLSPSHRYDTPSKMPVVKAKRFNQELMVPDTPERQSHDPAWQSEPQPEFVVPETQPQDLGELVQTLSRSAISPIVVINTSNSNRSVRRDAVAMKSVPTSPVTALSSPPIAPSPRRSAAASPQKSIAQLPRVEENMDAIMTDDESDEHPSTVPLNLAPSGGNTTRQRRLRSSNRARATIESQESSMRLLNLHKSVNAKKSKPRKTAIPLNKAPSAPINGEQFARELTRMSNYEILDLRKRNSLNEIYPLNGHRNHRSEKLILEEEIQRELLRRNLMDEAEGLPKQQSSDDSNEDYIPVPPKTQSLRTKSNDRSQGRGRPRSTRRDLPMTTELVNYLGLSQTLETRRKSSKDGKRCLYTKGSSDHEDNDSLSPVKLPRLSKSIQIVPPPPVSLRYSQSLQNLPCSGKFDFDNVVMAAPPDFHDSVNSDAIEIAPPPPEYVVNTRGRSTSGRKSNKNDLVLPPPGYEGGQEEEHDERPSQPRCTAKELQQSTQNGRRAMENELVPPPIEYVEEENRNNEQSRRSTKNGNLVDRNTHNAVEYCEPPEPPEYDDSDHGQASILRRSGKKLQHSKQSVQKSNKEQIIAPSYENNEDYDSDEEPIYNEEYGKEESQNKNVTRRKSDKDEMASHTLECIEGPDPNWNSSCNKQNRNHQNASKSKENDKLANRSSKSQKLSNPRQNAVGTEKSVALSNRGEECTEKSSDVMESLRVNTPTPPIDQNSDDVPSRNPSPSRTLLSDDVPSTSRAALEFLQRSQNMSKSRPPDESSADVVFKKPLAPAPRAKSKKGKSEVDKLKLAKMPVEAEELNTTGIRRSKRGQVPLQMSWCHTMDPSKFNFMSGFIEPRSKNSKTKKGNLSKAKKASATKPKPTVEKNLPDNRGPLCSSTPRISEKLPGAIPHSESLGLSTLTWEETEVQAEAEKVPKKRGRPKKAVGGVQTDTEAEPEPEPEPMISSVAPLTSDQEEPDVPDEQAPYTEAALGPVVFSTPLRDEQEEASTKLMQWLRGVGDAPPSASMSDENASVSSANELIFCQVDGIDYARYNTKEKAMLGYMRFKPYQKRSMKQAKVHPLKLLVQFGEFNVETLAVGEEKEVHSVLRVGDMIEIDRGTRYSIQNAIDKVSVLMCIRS

[4] = biological target: T3, GFP-LacI-CENP-C (Drosophila melanogaster) (UniProt Q9VHP9); assay: LacO/LacI tethering assay in cells
T3 sequence: T2 sequence with R1324F

[5] = biological target: T4, His-CENP-C_(1264-1411 F1324R) (Drosophila melanogaster) (UniProt Q9VHP9); assay: SEC
T4 sequence: T1 sequence with F61R

[6] = biological target: T5, His-CENP-C_(1264-1411 L1357E/M1407E) (Drosophila melanogaster) (UniProt Q9VHP9); assay: SEC
T5 sequence: T1 sequence with L94E, M144E

[7] = biological target: CAL1_(841-979) (untagged) (Drosophila melanogaster) (UniProt Q9VEN2); assay: AUC

Substance: His-SUMO-CAL1_(841-979 I900R/K907A/Y908A) (from UniProt Q9VEN2 841-979) (domain or fragment)
binding [2]: no binding

Substance: CAL1-V5 W22R/F29R (from UniProt Q9VEN2 1-979)
binding [1]: no binding

Substance: His-SUMO-CAL1_(841-979) (from UniProt Q9VEN2 841-979) (domain or fragment)
binding [5]: no binding
binding [6]: no binding

Substance: CAL1-V5 I900R/K907A/Y908A (from UniProt Q9VEN2 1-979)
binding [4]: binds

Results, then the substance that gave them:

binding [1]: binds weakly
Substance: CAL1-V5 W22A/F29A (from UniProt Q9VEN2 1-979)

binding [3]: binds
binding [1]: binds
binding [4]: binds
Substance: CAL1-V5 (from UniProt Q9VEN2 1-979)

binding [7]: no binding
Substance: CAL1_(841-979) (untagged) (from UniProt Q9VEN2 841-979) (domain or fragment)
